From PubChem BioAssay AID280 (DTP/NCI, 2004) come the findings set out here.

Molecules are shown by their SMILES. The list shows only some results of the screen, not a fair sample: it gathers tests that were run many times, whatever their T/C, doses with no T/C, and many T/C values between a quarter and a half above the control. Other doses and runs of a compound stand elsewhere. T/C is the treated group as % of the vehicle group. Some entries give survivors of the animals treated and no T/C: the source files T/C as zero there, which appears to mark a toxic dose or a test without result, not a measured value. Some doses without a T/C left all or most animals alive at the check, yet need not have been tolerated: the source hardly ever lists a survival T/C far under the control, and the zero likely stands for such cases as well. Counts of survivors are from the toxicity check (mostly the fifth day) where no day follows; animals may have died later. Schedule codes are those of the source, read here as Q, the interval in days (D) or hours (H), X, the number of doses. For survival time, this PubChem deposit counts one and a half times the control or more as active, and values a quarter to a half above the control carry no call in these data; other NCI protocols may use other cut-offs. Some doses were run more than once; the values are given in rising order. Some T/C values carry the count of animals alive at the toxicity check (mostly the fifth day); where none is given, no animal had died by that day.

The assay deals with nude mice, LOX melanoma ip, survival T/C. Briefly: NCI In Vivo Anticancer Drug Screen. Data for tumor model Human Amelanotic Melanoma (LOX) (intraperitoneal) in NU/NU BALB/C (nude) mice. The conditions noted are these: T/C endpoint: median survival time, higher T/C = longer survival. As to the method:
The antitumor activity of compounds was measured in mice bearing transplantable tumors. Survival or tumor size were measured and the results are expressed as the measurement made in the treated group (T) divided by the measurement made in the vehicle treated control group (C). The tumor model used in this assay is Human Amelanotic Melanoma (LOX) (intraperitoneal) in NU/NU BALB/C (nude) mice

Setting [1] is: dose: 400.0 mg/kg/injection, schedule: Q04DX003 (ip), vehicle: saline with Tween-80.
Setting [2] is: dose: 400.0 mg/kg/injection, schedule: Q04DX003 (ip), vehicle: Klucel (hydroxypropylcellulose) (HPC).
The mark [3] stands for this setting: dose: 800.0 mg/kg/injection, schedule: Q04DX003 (ip), vehicle: Klucel (hydroxypropylcellulose) (HPC).

As to `CN=C(NC)c1ccc(NC(=O)/C=C\c2ccc(/C=C/C(=O)Nc3ccc(C(=NC)NC)cc3)cc2)cc1`, the T/C (dose: 3.13 mg/kg/injection, schedule: Q04DX003 (ip), vehicle: Klucel (hydroxypropylcellulose) (HPC)) is 128 % of control.
For `CC[C@@]1(O)C(=O)OCc2c1cc1n(c2=O)Cc2cc3ccccc3nc2-1`, the survivor count is given as 3 of 6 on day 10 (dose: 10.0 mg/kg/injection, schedule: Q04DX003 (ip), vehicle: saline with Tween-80); 0 of 6 on day 10 (dose: 20.0 mg/kg/injection, schedule: Q04DX003 (ip), vehicle: saline with Tween-80); 0 of 6 on day 10 (dose: 40.0 mg/kg/injection, schedule: Q04DX003 (ip), vehicle: saline with Tween-80); 0 of 6 on day 10 (dose: 80.0 mg/kg/injection, schedule: Q04DX003 (ip), vehicle: saline with Tween-80).
For `[Cl][Hg][Cl]`, the survivor count runs as follows: (dose: 1.25 mg/kg/injection, schedule: Q04DX003 (ip), vehicle: saline) 5 of 6 on day 10; (dose: 2.5 mg/kg/injection, schedule: Q04DX003 (ip), vehicle: saline) 6 of 6 on day 10; (dose: 5.0 mg/kg/injection, schedule: Q04DX003 (ip), vehicle: saline) 6 of 6 on day 10; (dose: 10.0 mg/kg/injection, schedule: Q04DX003 (ip), vehicle: saline) 0 of 6 on day 10.
As for `O=C1C(=O)c2cccnc2-c2ncccc21`, the T/C (dose: 10.0 mg/kg/injection, schedule: Q04DX003 (ip), vehicle: Klucel (hydroxypropylcellulose) (HPC)) is 133 % of control. Moreover, the survivor count by setting is: (dose: 20.0 mg/kg/injection, schedule: Q04DX003 (ip), vehicle: Klucel (hydroxypropylcellulose) (HPC)) 0 of 6 on day 10; (dose: 40.0 mg/kg/injection, schedule: Q04DX003 (ip), vehicle: Klucel (hydroxypropylcellulose) (HPC)) 0 of 6 on day 10.
On to `CN(C)CCCN=c1c2ccccc2n(C)c2[nH]c(=O)n(C)c(=O)c12`, for which the T/C (dose: 25.0 mg/kg/injection, schedule: Q04DX003 (ip), vehicle: saline) is 132 % of control. Moreover, the survivor count (dose: 100.0 mg/kg/injection, schedule: Q04DX003 (ip), vehicle: saline) is listed as 0 of 6 on day 10 and the survivor count (dose: 200.0 mg/kg/injection, schedule: Q04DX003 (ip), vehicle: saline) is 0 of 6 on day 10.
For `NC(=O)c1[nH]cnc1O`, the survivor count under setting [1] was 5 of 6 on day 10 and the survivor count (dose: 800.0 mg/kg/injection, schedule: Q04DX003 (ip), vehicle: saline with Tween-80) was 1 of 6 on day 10.
Regarding `CC1/C=C/C=C/CC/C=C/C=C/C=C/C=C/C(OC2OC(C)C(O)C(N)C2O)CC2OC(CC(O)C(O)CCC(O)CC(O)CC(O)CC(=O)OC(C)C(C)C1O)CC(O)C2C(=O)O` (configuration not stated), the survivor count is listed as 3 of 6 on day 10 (dose: 200.0 mg/kg/injection, schedule: Q04DX003 (ip), vehicle: saline with Tween-80) and 1 of 6 on day 10 under setting [1].
As for `CO[C@H](/C(C)=C/C=C/C(C)=C/c1coc(C)n1)[C@H](C)[C@H]1C[C@@H](O)[C@@]2(C)O[C@H]2/C=C/[C@@H](C)[C@@H]2C[C@@H](CC(=O)O2)C[C@H]2O[C@@H]2C(=O)O1`, the T/C (dose: 0.13 mg/kg/injection, schedule: Q01DX009 (ip), vehicle: other) is 133 % of control; the T/C (dose: 0.2 mg/kg/injection, schedule: Q01DX009 (ip), vehicle: other) is 144 % of control; the T/C (dose: 0.33 mg/kg/injection, schedule: Q04DX003 (ip), vehicle: other) was 127 % of control. Also, the survivor count is given as 4 of 6 on day 10 (dose: 0.44 mg/kg/injection, schedule: Q01DX009 (ip), vehicle: other); 0 of 6 on day 10 (dose: 0.66 mg/kg/injection, schedule: Q01DX009 (ip), vehicle: other); 3 of 10 on day 10 (dose: 1.0 mg/kg/injection, schedule: Q01DX009 (ip), vehicle: other).
For the compound `O=C(Nc1cccc(Cl)c1)ON1C(=O)C2C(C1=O)C1(Cl)C(Cl)C(Cl)C2(Cl)C1(Cl)Cl` (configuration not stated), under “dose: 1200.0 mg/kg/injection, schedule: Q04DX003 (ip), vehicle: saline with Tween-80”, the survivor count is recorded as 0 of 6 on day 10.
Take `CNC(=S)SC1=NS(=O)(=O)c2ccccc2N1`: the survivor count is 2 of 6 on day 10 under setting [2] and 0 of 6 on day 10 under setting [3].
As to `CC(C)(C)NC(C1=CC(C)(C)c2ccccc2C1=O)c1ccccc1` (configuration not stated), the survivor count under setting [2] was 0 of 6 on day 10.
With `CO[C@@]12[C@@H]3N[C@@H]3CN1C1=C(C(=O)C(NCC3CCCO3)=C(C)C1=O)[C@@H]2COC(N)=O` (some centres not stated), the T/C (dose: 3.13 mg/kg/injection, schedule: Q04DX003 (ip), vehicle: distilled water + Tween-80) was 132 % of control and the T/C (dose: 6.25 mg/kg/injection, schedule: Q04DX003 (ip), vehicle: distilled water + Tween-80) is 128 % of control [5 of 6 alive on day 10].
Regarding `COc1ccc2c(ccc3oc([N+](=O)[O-])cc32)c1`, the T/C (dose: 50.0 mg/kg/injection, schedule: Q04DX003 (ip), vehicle: Klucel (hydroxypropylcellulose) (HPC)) is 132 % of control; the T/C (dose: 72.0 mg/kg/injection, schedule: Q04DX003 (ip), vehicle: Klucel (hydroxypropylcellulose) (HPC)) is 145 % of control; the T/C (dose: 200.0 mg/kg/injection, schedule: Q04DX003 (ip), vehicle: Klucel (hydroxypropylcellulose) (HPC)) was 142 and 145 % of control. The survivor count is on record as 6 of 6 on day 10 (dose: 333.33 mg/kg/injection, schedule: Q04DX003 (ip), vehicle: Klucel (hydroxypropylcellulose) (HPC)); 0 of 6 on day 10 (dose: 555.56 mg/kg/injection, schedule: Q04DX003 (ip), vehicle: Klucel (hydroxypropylcellulose) (HPC)); 5 of 6 on day 10 under setting [3].
As to `CN1CCN(CN2C(=O)C3C4C=CC(C3C2=O)C2C3C(=O)N(CN5CCN(C)CC5)C(=O)C3C42)CC1` (configuration not stated), under “dose: 200.0 mg/kg/injection, schedule: Q04DX003 (ip), vehicle: water”, the survivor count is 1 of 6 on day 10.
`O=C1c2cccc(NCCNCCO)c2C(=O)c2cccc(NCCNCCO)c21`: the T/C (dose: 18.75 mg/kg/injection, schedule: Q04DX003 (ip), vehicle: suspension in saline) is 126 % of control. Besides, the survivor count by setting is: (dose: 37.5 mg/kg/injection, schedule: Q04DX003 (ip), vehicle: suspension in saline) 2 of 6 on day 10; (dose: 75.0 mg/kg/injection, schedule: Q04DX003 (ip), vehicle: suspension in saline) 0 of 6 on day 10.
As to `CCOC(=O)Nc1cc2c(c(N)n1)N=C(c1ccccc1)CN2`, the survivor count (dose: 15.0 mg/kg/injection, schedule: Q04DX003 (ip), vehicle: saline with Tween-80) is listed as 1 of 6 on day 10.
